In PubChem BioAssay AID504444 (National Center for Advancing Translational Sciences (NCATS), 2011):
Among all 360,000 compounds or so, about 7,500 (2.1%) were called active. Inconclusive means that the source gave no clear call. Such entries were picked first, then a sample of the others. Calls come from the whole dose curve; as a rule, active = well fitted inhibition curve with a large enough effect; inconclusive = small, poorly fitted or top-dose-only effect, or effect the other way; inactive = flat fitted curve, though single readings scatter. A potency beside an inconclusive call is a rough fit, not a confirmed value.

test: Nrf2 qHTS screen for inhibitors; details: A549 ARE-Fluc reporter, luciferase luminescence, 18-24 h; series mostly up to 46 µM; note: nearly all actives have a fitted effect of over 60% in size
In short: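 Reporter: ARE-Fluc in A549. Exposure: 18-24 h, 37 °C, 5% CO2, 5% FBS OPTI-MEM. Readouts: fluorescent cytotoxicity (CellTiter-Fluor), then luminescent Nrf2 signal after BugLite.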
Potency is the fitted concentration of half-maximal effect.

| SMILES | Potency |
| --- | --- |
| COc1ccc(C2Nc3ccccc3C(=O)N2Cc2ccccc2Cl)cc1COc1ccc(NC(C)=O)cc1 (centres undefined) | inactive |
| C1CCCN(c2nc3nonc3nc2N2CCCCCC2)CC1 | inconclusive: 20.6 µM [falling, single point] |
| COc1cc(SC)ccc1C(=O)Nc1ccc(C)cc1 | inconclusive: 9.2 µM [activator, partial curve] |
| CCOC(=O)c1ccc(N2C(=O)c3n[nH]c(-c4cccs4)c3C2c2ccc(C(C)C)cc2)cc1 (centres undefined) | active: 23.1 µM |
| O=C(COC(=O)c1cc(S(=O)(=O)N2CCCCC2)ccc1Cl)NCc1ccco1 | inconclusive: 29.1 µM [activator, single point] |
| Cc1ccc2c(c1)c1c(c(=O)n(-c3ccccc3C)c(=O)n1CC(=O)NCc1ccccc1)n2C | inactive |
| COCCNC(=O)[C@@H]1CCCN1C(=O)C1CCN(S(=O)(=O)c2ccc(C)cc2)CC1 | inconclusive: 0.461 µM [activator, partial curve, poor fit] |
| Cc1cc(C)c(C)c(S(=O)(=O)Nc2cccc(-n3cnnn3)c2)c1C | inconclusive: 18.4 µM [falling, single point] |
| COc1ccccc1NS(=O)(=O)c1cc(NC(=O)c2cccs2)ccc1N1CCCCC1 | inconclusive: 1.3 µM [falling, full curve, poor fit] |
| COc1ccc(Cn2c(-c3ccc(C)cc3)nc3c(c(=O)c4ccccc4n3C)c2=O)cc1 | inconclusive: 23.1 µM [falling, single point] |
| c1ccc(-c2csc(Nc3ccccn3)n2)cc1 | inconclusive: 1.03 µM [activator, full curve, poor fit] |
| CCn1c2ccccc2c2cc(/C=C(/C#N)C(N)=S)ccc21 | inactive |
| COC(=O)c1sccc1S(=O)(=O)N1CCN(c2ccccc2OC)CC1 | inactive |
| O=C(Nc1ccc2nc(SCCOc3ccccc3Cl)sc2c1)c1cccs1 | active: 9.2 µM |
| CCOCCCn1cnc2c3cc(F)ccc3n(C)c2c1=O | inconclusive: 2.91 µM [falling, partial curve, poor fit] |
| COc1ccc(OC)c(CCNC(=O)CC2(CC3=NS(=O)(=O)c4ccccc4N3)CCCC2)c1 | inconclusive: 29.1 µM [falling, single point] |
| O=C1CC(c2ccc(Cl)cc2)Oc2ccc(Cl)cc21 (centres undefined) | inconclusive: 25.9 µM [falling, single point] |
| CCOc1cc(N2CCOCC2)c(OCC)cc1NC(=O)c1cc(-c2ccco2)nc2ccccc12 | active: 14.6 µM |
| Cc1c(NC(=O)c2nn3c(C(F)(F)F)cc(-c4ccccc4)nc3c2Cl)c(=O)n(-c2ccccc2)n1C | inconclusive: 32.6 µM [falling, partial curve, poor fit] |

Rewritten with bars between the fields: two of the compounds above
SMILES | Potency
COc1cc(SC)ccc1C(=O)Nc1ccc(C)cc1 | inconclusive: 9.2 µM [activator, partial curve]
CCOC(=O)c1ccc(N2C(=O)c3n[nH]c(-c4cccs4)c3C2c2ccc(C(C)C)cc2)cc1 (centres undefined) | active: 23.1 µM
